According to article PMC4386032:
Residue numbers refer to the chain shown, from its start. These are yes or no findings as the source states them, for the method shown. Binding seen in cells or lysates may run through a third protein. Some entries that bind do so weakly or less than the wild type. Values belong to the binder of their own block, whether it stands above or below them.

Target: Rvs167-VC (amphiphysin Rvs167 with the C-terminal half of Venus) (yeast (budding yeast)) (UniProt P39743)
Assay: split reporter; BiFC in live yeast: VN on Vps1 or Vps1 RR-EE, VC on Rvs167, strains crossed for co-expression; fluorescence microscopy

binding: binds
B1: Vps1-VN (Vps1 with the N-terminal half of Venus) (protein, UniProt P21576 1-704)
chain: MDEHLISTINKLQDALAPLGGGSQSPIDLPQITVVGSQSSGKSSVLENIVGRDFLPRGTGIVTRRPLVLQLINRRPKKSEHAKVNQTANELIDLNINDDDKKKDESGKHQNEGQSEDNKEEWGEFLHLPGKKFYNFDEIRKEIVKETDKVTGANSGISSVPINLRIYSPHVLTLTLVDLPGLTKVPVGDQPPDIERQIKDMLLKYISKPNAIILSVNAANTDLANSDGLKLAREVDPEGTRTIGVLTKVDLMDQGTDVIDILAGRVIPLRYGYIPVINRGQKDIEHKKTIREALENERKFFENHPSYSSKAHYCGTPYLAKKLNSILLHHIRQTLPEIKAKIEATLKKYQNELINLGPETMDSASSVVLSMITDFSNEYAGILDGEAKELSSQELSGGARISYVFHETFKNGVDSLDPFDQIKDSDIRTIMYNSSGSAPSLFVGTEAFEVLVKQQIRRFEEPSLRLVTLVFDELVRMLKQIISQPKYSRYPALREAISNQFIQFLKDATIPTNEFVVDIIKAEQTYINTAHPDLLKGSQAMVMVEEKLHPRQVAVDPKTGKPLPTQPSSSKAPVMEEKSGFFGGFFSTKNKKKLAALESPPPVLKATGQMTERETMETEVIKLLISSYFSIVKRTIADIIPKALMLKLIVKSKTDIQKVLLEKLYGKQDIEELTKENDITIQRRKECKKMVEILRNASQIVSSV

binding: binds
B2: Vps1 RR-EE-VN (Vps1 RR457,458EE with the N-terminal half of Venus) (protein, UniProt P21576 1-704)
chain: B1 chain with R457E, R458E
